This note sets out measurements from US20250002574A1.

Numbering of substitutions follows the chain as printed. Results are given in words; binding and its absence hold for the method and conditions named. Some binding calls cover weakened binding; strength is not graded here.

Experiment [1] concerns the target T1, IL-11 stably expressed on CHO cells (membrane-IL-11 CHO) (UniProt P20809).
T1 sequence (looked up): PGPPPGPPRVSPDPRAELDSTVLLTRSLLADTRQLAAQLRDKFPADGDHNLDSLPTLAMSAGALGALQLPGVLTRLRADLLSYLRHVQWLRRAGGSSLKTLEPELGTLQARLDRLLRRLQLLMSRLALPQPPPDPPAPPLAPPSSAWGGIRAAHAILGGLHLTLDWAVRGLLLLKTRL
Briefly: flow cytometry on membrane-IL-11 CHO cells, detection with goat-anti-Fc-FITC. Background: A flow cytometer gives signals particle by particle.

Experiment [2] has as its target T1, IL-11 stably expressed on CHO cells (membrane-IL-11 CHO). Briefly: flow cytometry on membrane-IL-11 CHO cells.
For experiment [3], the target named is IL-11-Fc protein (UniProt P20809). Briefly: competition ELISA: IL-11R-His coated, IL-11-Fc co-incubated with a dilution series of the antibody, bound IL-11-Fc detected with HRP goat anti-IgG-Fc; blocked partner IL-11R-His. Background: ELISA stands for enzyme-linked immunosorbent assay.
The target in experiment [4] is recombinant IL-11 (LSBio, LS-G132887-10) (UniProt P20809). Briefly: ELISA, cytokine coated.

B1: MIL-11 mab-03 (antibody, IgG1, V domains shown)
VH: QVQLVQSGAEVKKPGASVKVSCKASDYTFTNYWLGWVRQAPGQGLEWMGHIYPGGGYTNYNEKFKGRVTMTRDTSTSTVYMELSSLRSEDTAVYYCARVSSGNDALDFWGQGTLVTVSS
VL: EIVLTQSPATLSLSPGERATLSCRASESVDEYGISFMNWFQQKPGQAPRLLIYSASNQASGIPARFSGSGSGTDFTLTISSLEPEDFAVYFCQQSKELPWTFGGGTKLEIK
With B1, the binding entry in experiment [1] and in experiment [2] was “binds” throughout.

B2: MIL-11 mab-01 (antibody, IgG1, V domains shown)
VH: B1 VH with F108L
VL: B1 VL with A55G, Q58E, A59G, Q93N, L98V
For the molecule B2, the binding entry in experiment [1] and in experiment [2] was “binds” in each case.

B3: VH1+VL3 full-length humanized antibody (antibody, human IgG1, kappa, V domains shown)
VH: B1 VH with S100R
VL: EIVLTQSPATLSLSPGERATLSCRASESVDEYGISFMNWFQQKPGQAPRLLIYSASNQGSGIPARFSGSGSGTDFTLTISSLEPEDFAVYFCQQSKEVPWTFGGGTKLEIKR
As to B3, the binding entry in experiment [1] and in experiment [2] was “binds” in each case.

B4: MIL-11 mab-02 (antibody, IgG1, V domains shown)
VH: B1 VH
VL: B1 VL with A59G
On to B4, for which the binding result in experiment [1] and in experiment [2] was “binds” throughout.

B5: 3-6A4 (recombinant, expressed in CHO, Example 6) (antibody, human IgG1, kappa, V domains shown)
VH: QIQLVQSGPELKKPGETVKISCKASGYTFTTNGINWVKQAAGKGLKWMGWINTNTGEPTNAEELKGRFAFSLETSASTAYLQINNLKNEDAAIYFCAREGAFGLDYWGQGTSVTVSS
VL: SIVMTQSPKFLLVSAGDRVIITCKASQSVSNDVVWYQQKPGQSPKLLIYYGSHRNTGVPTRFTGSGYGTDFTFTISTVQAEDLAVYFCQQDFFSPWTFGGGTKLEIKR
On to B5, for which the binding entry in experiment [3] and in experiment [4] was “binds” each time.
